Among the data in article doi:10.1101/2022.01.20.477077 are binding values, retold here.

Amino acid sequences for entries named in this document (tags omitted).
UniProt O60493: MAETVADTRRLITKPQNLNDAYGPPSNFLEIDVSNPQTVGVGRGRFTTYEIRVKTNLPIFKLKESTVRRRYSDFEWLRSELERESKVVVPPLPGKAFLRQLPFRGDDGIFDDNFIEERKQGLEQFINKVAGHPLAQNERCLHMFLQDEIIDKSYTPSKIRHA

The experiment has as its target T1, His-V5-tagged human FRABIN (human) (UniProt Q96M96).
T1 sequence: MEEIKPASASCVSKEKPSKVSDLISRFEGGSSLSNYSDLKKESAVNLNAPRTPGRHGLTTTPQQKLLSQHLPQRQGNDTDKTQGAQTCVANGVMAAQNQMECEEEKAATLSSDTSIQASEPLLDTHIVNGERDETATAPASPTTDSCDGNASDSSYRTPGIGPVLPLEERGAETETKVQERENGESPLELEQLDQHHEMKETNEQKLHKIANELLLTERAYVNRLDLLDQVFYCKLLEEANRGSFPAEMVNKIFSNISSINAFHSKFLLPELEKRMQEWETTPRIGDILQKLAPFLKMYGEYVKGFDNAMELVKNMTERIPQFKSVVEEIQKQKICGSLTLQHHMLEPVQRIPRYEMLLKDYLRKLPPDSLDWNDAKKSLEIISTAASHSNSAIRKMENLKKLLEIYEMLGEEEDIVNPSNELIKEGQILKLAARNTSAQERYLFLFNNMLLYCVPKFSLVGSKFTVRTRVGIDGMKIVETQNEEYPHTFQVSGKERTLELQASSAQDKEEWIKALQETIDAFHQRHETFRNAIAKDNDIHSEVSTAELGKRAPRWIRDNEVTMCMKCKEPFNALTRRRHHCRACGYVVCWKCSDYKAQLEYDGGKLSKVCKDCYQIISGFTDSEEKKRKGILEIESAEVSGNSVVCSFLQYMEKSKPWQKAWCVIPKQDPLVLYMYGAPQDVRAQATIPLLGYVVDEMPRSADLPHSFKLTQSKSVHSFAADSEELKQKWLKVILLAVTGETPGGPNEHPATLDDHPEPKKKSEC
Description: co-IP.

These are yes or no findings as the source states them, for the method shown. Binding seen in cells or lysates may run through a third protein. Some results given as binding are weak or reduced against the parent protein; the word gives no strength. Where a sequence is shown, tags or fusion partners need not be part of it.

Consider “SNX3 in HEK293 lysate (from UniProt O60493 1-162)”, for which the binding entry is “binds”.
